Data published in paper PMC6639074.

By UniProt entry, the sequences of proteins in these tests, tags left out. Where a name states a change or a piece, a line headed by the entry shows the natural chain unless it says otherwise. Chains listed by the source or under a name are the forms on record and can include a tag or linker.
Rab5A(Q79L)-BirA*-HA-MAO (P20339, form named): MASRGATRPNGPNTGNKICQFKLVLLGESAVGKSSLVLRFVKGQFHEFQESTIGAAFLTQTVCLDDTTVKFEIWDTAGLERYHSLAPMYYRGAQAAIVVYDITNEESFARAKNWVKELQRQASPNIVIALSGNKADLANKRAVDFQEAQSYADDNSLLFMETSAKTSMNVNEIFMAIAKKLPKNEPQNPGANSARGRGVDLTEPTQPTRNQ
Rab5A(S34N)-BirA*-HA-MAO (P20339, form named): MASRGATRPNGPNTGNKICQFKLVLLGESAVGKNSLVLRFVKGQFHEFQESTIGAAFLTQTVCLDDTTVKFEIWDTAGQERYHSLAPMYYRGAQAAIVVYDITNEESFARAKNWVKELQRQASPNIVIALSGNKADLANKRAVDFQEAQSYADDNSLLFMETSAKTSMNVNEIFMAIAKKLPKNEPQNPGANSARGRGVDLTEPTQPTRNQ
UniProt P60953: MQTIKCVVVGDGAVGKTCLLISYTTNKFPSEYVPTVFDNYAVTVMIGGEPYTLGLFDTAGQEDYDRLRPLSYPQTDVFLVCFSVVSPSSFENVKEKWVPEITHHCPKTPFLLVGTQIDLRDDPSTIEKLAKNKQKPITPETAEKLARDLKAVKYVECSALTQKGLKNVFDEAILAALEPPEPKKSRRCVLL
UniProt P61586: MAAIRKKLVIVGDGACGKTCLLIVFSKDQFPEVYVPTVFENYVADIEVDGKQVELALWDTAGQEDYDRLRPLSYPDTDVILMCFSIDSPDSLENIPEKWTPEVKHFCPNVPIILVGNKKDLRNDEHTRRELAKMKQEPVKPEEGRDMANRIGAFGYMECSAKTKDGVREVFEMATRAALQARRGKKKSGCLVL

Columns and labels:
Assay in all cases: proximity labelling; MitoID: GTPase-BirA*-HA-MAO chimera on mitochondria of transiently transfected HEK293T cells, 50 uM biotin 18 h, streptavidin beads, mass spectrometry, biological triplicates; hits by WD scores and volcano plots against the GDP-locked forms
[1] = target: Rab5A(Q79L)-BirA*-HA-MAO (human) (UniProt P20339)
[2] = target: Rab5A(S34N)-BirA*-HA-MAO (human) (UniProt P20339)
[3] = target: Cdc42(T17N)-BirA*-HA-MAO (human) (UniProt P60953)
[4] = target: RhoA(Q63L)-BirA*-HA-MAO (human) (UniProt P61586)

B1: FBXL4 (protein, UniProt Q9UKA2 1-621)
chain: MSPVFPMLTVLTMFYYICLRRRARTATRGEMMNTHRAIESNSQTSPLNAEVVQYAKEVVDFSSHYGSENSMSYTMWNLAGVPNVFPSSGDFTQTAVFRTYGTWWDQCPSASLPFKRTPPNFQSQDYVELTFEQQVYPTAVHVLETYHPGAVIRILACSANPYSPNPPAEVRWEILWSERPTKVNASQARQFKPCIKQINFPTNLIRLEVNSSLLEYYTELDAVVLHGVKDKPVLSLKTSLIDMNDIEDDAYAEKDGCGMDSLNKKFSSAVLGEGPNNGYFDKLPYELIQLILNHLTLPDLCRLAQTCKLLSQHCCDPLQYIHLNLQPYWAKLDDTSLEFLQSRCTLVQWLNLSWTGNRGFISVAGFSRFLKVCGSELVRLELSCSHFLNETCLEVISEMCPNLQALNLSSCDKLPPQAFNHIAKLCSLKRLVLYRTKVEQTALLSILNFCSELQHLSLGSCVMIEDYDVIASMIGAKCKKLRTLDLWRCKNITENGIAELASGCPLLEELDLGWCPTLQSSTGCFTRLAHQLPNLQKLFLTANRSVCDTDIDELACNCTRLQQLDILGTRMVSPASLRKLLESCKDLSLLDVSFCSQIDNRAVLELNASFPKVFIKKSFTQ
In the case of B1, the binding [1] is reported as “binds” and the binding [2] is reported as “binds”.

B2: LRCH2 (protein, UniProt Q5VUJ6 1-765)
chain: MAASQGGGGNSGGGGCGGGGSSGGCGTAGGGGGGAGGGGGGGGGTLVVPIPVPTLFGQPFPNGPPWNPGSLQPQHTVRSLDRALEEAGSSGILSLSGRKLRDFPGSGYDLTDTTQADLSRNRFTEIPSDVWLFAPLETLNLYHNCIKTIPEAIKNLQMLTYLNISRNLLSTLPKYLFDLPLKVLVVSNNKLVSIPEEIGKLKDLMELDISCNEIQVLPQQMGKLHSLRELNIRRNNLHVLPDELGDLPLVKLDFSCNKVTEIPVCYRKLHHLQVIILDNNPLQVPPAQICLKGKVHIFKYLNIQACCRMDKKPDSLDLPSLSKRMPSQPLTDSMEDFYPNKNHGPDSGIGSDNGEKRLSTTEPSDDDTVSLHSQVSESNREQTSRNDSHIIGSKTDSQKDQEVYDFVDPNTEDVAVPEQGNAHIGSFVSFFKGKEKCSEKSRKNEELGDEKRLEKEQLLAEEEDDDLKEVTDLRKIAAQLLQQEQKNRILNHSTSVMRNKPKQTVECEKSVSADEVNSPLSPLTWQPLENQKDQIDEQPWPESHPIIWQSEERRRSKQIRKEYFKYKSMRKSSSGNENDEQDSDNANMSTQSPVSSEEYDRTDGFSHSPFGLKPRSAFSRSSRQEYGAADPGFTMRRKMEHLREEREQIRQLRNNLESRLKVILPDDIGAALMDGVVLCHLANHIRPRSVASIHVPSPAVPKLSMAKCRRNVENFLDACKKLGVSQERLCLPHHILEERGLVKVGVTVQALLELPTTKASQLSVA
B2 was tested, and the binding [3] was “binds”.

B3: LRCH3 (protein, UniProt Q96II8 1-777)
chain: MAAAGLVAVAAAAEYSGTVASGGNLPGVHCGPSSGAGPGFGPGSWSRSLDRALEEAAVTGVLSLSGRKLREFPRGAANHDLTDTTRADLSRNRLSEIPIEACHFVSLENLNLYQNCIRYIPEAILNLQALTFLNISRNQLSTLPVHLCNLPLKVLIASNNKLVSLPEEIGHLRHLMELDVSCNEIQTIPSQIGNLEALRDLNVRRNHLVHLPEELAELPLIRLDFSCNKITTIPVCYRNLRHLQTITLDNNPLQSPPAQICIKGKVHIFKYLNIQACKIAPDLPDYDRRPLGFGSCHEELYSSRPYGALDSGFNSVDSGDKRWSGNEPTDEFSDLPLRVAEITKEQRLRRESQYQENRGSLVVTNGGVEHDLDQIDYIDSCTAEEEEAEVRQPKGPDPDSLSSQFMAYIEQRRISHEGSPVKPVAIREFQKTEDMRRYLHQNRVPAEPSSLLSLSASHNQLSHTDLELHQRREQLVERTRREAQLAALQYEEEKIRTKQIQRDAVLDFVKQKASQSPQKQHPLLDGVDGECPFPSRRSQHTDDSALCMSLSGLNQVGCAATLPHSSAFTPLKSDDRPNALLSSPATETVHHSPAYSFPAAIQRNQPQRPESFLFRAGVRAETNKGHASPLPPSAAPTTDSTDSITGQNSRQREEELELIDQLRKHIEYRLKVSLPCDLGAALTDGVVLCHLANHVRPRSVPSIHVPSPAVPKLTMAKCRRNVENFLEACRKIGVPQEQLCLPLHILEEKGLSQVAVTVQALLELAPPKQQQHQLSAV
For B3, the binding [3] was “binds”.

B4: PDLIM4 (protein, UniProt P50479 1-330)
chain: MPHSVTLRGPSPWGFRLVGGRDFSAPLTISRVHAGSKAALAALCPGDLIQAINGESTELMTHLEAQNRIKGCHDHLTLSVSRPEGRSWPSAPDDSKAQAHRIHIDPEIQDGSPTTSRRPSGTGTGPEDGRPSLGSPYGQPPRFPVPHNGSSEATLPAQMSTLHVSPPPSADPARGLPRSRDCRVDLGSEVYRMLREPAEPVAAEPKQSGSFRYLQGMLEAGEGGDWPGPGGPRNLKPTASKLGAPLSGLQGLPECTRCGHGIVGTIVKARDKLYHPECFMCSDCGLNLKQRGYFFLDERLYCESHAKARVKPPEGYDVVAVYPNAKVELV
In the case of B4, the binding [3] is reported as “binds”.

B5: ARHGAP35/p190RhoGAP (protein, UniProt Q9NRY4 1-1499)
chain: MMMARKQDVRIPTYNISVVGLSGTEKEKGQCGIGKSCLCNRFVRPSADEFHLDHTSVLSTSDFGGRVVNNDHFLYWGEVSRSLEDCVECKMHIVEQTEFIDDQTFQPHRSTALQPYIKRAAATKLASAEKLMYFCTDQLGLEQDFEQKQMPDGKLLVDGFLLGIDVSRGMNRNFDDQLKFVSNLYNQLAKTKKPIVVVLTKCDEGVERYIRDAHTFALSKKNLQVVETSARSNVNVDLAFSTLVQLIDKSRGKTKIIPYFEALKQQSQQIATAKDKYEWLVSRIVKNHNENWLSVSRKMQASPEYQDYVYLEGTQKAKKLFLQHIHRLKHEHIERRRKLYLAALPLAFEALIPNLDEIDHLSCIKAKKLLETKPEFLKWFVVLEETPWDATSHIDNMENERIPFDLMDTVPAEQLYEAHLEKLRNERKRVEMRRAFKENLETSPFITPGKPWEEARSFIMNEDFYQWLEESVYMDIYGKHQKQIIDKAKEEFQELLLEYSELFYELELDAKPSKEKMGVIQDVLGEEQRFKALQKLQAERDALILKHIHFVYHPTKETCPSCPACVDAKIEHLISSRFIRPSDRNQKNSLSDPNIDRINLVILGKDGLARELANEIRALCTNDDKYVIDGKMYELSLRPIEGNVRLPVNSFQTPTFQPHGCLCLYNSKESLSYVVESIEKSRESTLGRRDNHLVHLPLTLILVNKRGDTSGETLHSLIQQGQQIASKLQCVFLDPASAGIGYGRNINEKQISQVLKGLLDSKRNLNLVSSTASIKDLADVDLRIVMCLMCGDPFSADDILFPVLQSQTCKSSHCGSNNSVLLELPIGLHKKRIELSVLSYHSSFSIRKSRLVHGYIVFYSAKRKASLAMLRAFLCEVQDIIPIQLVALTDGAVDVLDNDLSREQLTEGEEIAQEIDGRFTSIPCSQPQHKLEIFHPFFKDVVEKKNIIEATHMYDNAAEACSTTEEVFNSPRAGSPLCNSNLQDSEEDIEPSYSLFREDTSLPSLSKDHSKLSMELEGNDGLSFIMSNFESKLNNKVPPPVKPKPPVHFEITKGDLSYLDQGHRDGQRKSVSSSPWLPQDGFDPSDYAEPMDAVVKPRNEEENIYSVPHDSTQGKIITIRNINKAQSNGSGNGSDSEMDTSSLERGRKVSIVSKPVLYRTRCTRLGRFASYRTSFSVGSDDELGPIRKKEEDQASQGYKGDNAVIPYETDEDPRRRNILRSLRRNTKKPKPKPRPSITKATWESNYFGVPLTTVVTPEKPIPIFIERCIEYIEATGLSTEGIYRVSGNKSEMESLQRQFDQDHNLDLAEKDFTVNTVAGAMKSFFSELPDPLVPYNMQIDLVEAHKINDREQKLHALKEVLKKFPKENHEVFKYVISHLNKVSHNNKVNLMTSENLSICFWPTLMRPDFSTMDALTATRTYQTIIELFIQQCPFFFYNRPITEPPGARPSSPSAVASTVPFLTSTPVTSQPSPPQSPPPTPQSPMQPLLPSQLQAEHTL
B5 was tested, and the binding [4] was “binds”.

B6: GAPVD1/Rme-6 (protein, UniProt Q14C86 1-1478)
chain: MVKLDIHTLAHHLKQERLYVNSEKQLIQRLNADVLKTAEKLYRTAWIAKQQRINLDRLIITSAEASPAECCQHAKILEDTQFVDGYKQLGFQETAYGEFLSRLRENPRLIASSLVAGEKLNQENTQSVIYTVFTSLYGNCIMQEDESYLLQVLRYLIEFELKESDNPRRLLRRGTCAFSILFKLFSEGLFSAKLFLTATLHEPIMQLLVEDEDHLETDPNKLIERFSPSQQEKLFGEKGSDRFRQKVQEMVESNEAKLVALVNKFIGYLKQNTYCFPHSLRWIVSQMYKTLSCVDRLEVGEVRAMCTDLLLACFICPAVVNPEQYGIISDAPINEVARFNLMQVGRLLQQLAMTGSEEGDPRTKSSLGKFDKSCVAAFLDVVIGGRAVETPPLSSVNLLEGLSRTVVYITYSQLITLVNFMKSVMSGDQLREDRMALDNLLANLPPAKPGKSSSLEMTPYNTPQLSPATTPANKKNRLPIATRSRSRTNMLMDLHMDHEGSSQETIQEVQPEEVLVISLGTGPQLTPGMMSENEVLNMQLSDGGQGDVPVDENKLHGKPDKTLRFSLCSDNLEGISEGPSNRSNSVSSLDLEGESVSELGAGPSGSNGVEALQLLEHEQATTQDNLDDKLRKFEIRDMMGLTDDRDISETVSETWSTDVLGSDFDPNIDEDRLQEIAGAAAENMLGSLLCLPGSGSVLLDPCTGSTISETTSEAWSVEVLPSDSEAPDLKQEERLQELESCSGLGSTSDDTDVREVSSRPSTPGLSVVSGISATSEDIPNKIEDLRSECSSDFGGKDSVTSPDMDEITHGAHQLTSPPSQSESLLAMFDPLSSHEGASAVVRPKVHYARPSHPPPDPPILEGAVGGNEARLPNFGSHVLTPAEMEAFKQRHSYPERLVRSRSSDIVSSVRRPMSDPSWNRRPGNEERELPPAAAIGATSLVAAPHSSSSSPSKDSSRGETEERKDSDDEKSDRNRPWWRKRFVSAMPKAPIPFRKKEKQEKDKDDLGPDRFSTLTDDPSPRLSAQAQVAEDILDKYRNAIKRTSPSDGAMANYESTGDNHDRDLSSKLLYHSDKEVMGDGESAHDSPRDEALQNISADDLPDSASQAAHPQDSAFSYRDAKKKLRLALCSADSVAFPVLTHSTRNGLPDHTDPEDNEIVCFLKVQIAEAINLQDKNLMAQLQETMRCVCRFDNRTCRKLLASIAEDYRKRAPYIAYLTRCRQGLQTTQAHLERLLQRVLRDKEVANRYFTTVCVRLLLESKEKKIREFIQDFQKLTAADDKTAQVEDFLQFLYGAMAQDVIWQNASEEQLQDAQLAIERSVMNRIFKLAFYPNQDGDILRDQVLHEHIQRLSKVVTANHRALQIPEVYLREAPWPSAQSEIRTISAYKTPRDKVQCILRMCSTIMNLLSLANEDSVPGADDFVPVLVFVLIKANPPCLLSTVQYISSFYASCLSGEESYWWMQFTAAVEFIKTIDDRK
In the case of B6, the binding [2] is reported as “binds”.

Results are given in words; binding and its absence hold for the method and conditions named. Binding seen in cells or lysates may run through a third protein. These calls come from enrichment with a bait or labelling near it, and not all partners need be listed.
